# Article PMC9281110
# Sequences of proteins named here, by UniProt entry; tags and fusion partners are left off.
# UniProt P28290: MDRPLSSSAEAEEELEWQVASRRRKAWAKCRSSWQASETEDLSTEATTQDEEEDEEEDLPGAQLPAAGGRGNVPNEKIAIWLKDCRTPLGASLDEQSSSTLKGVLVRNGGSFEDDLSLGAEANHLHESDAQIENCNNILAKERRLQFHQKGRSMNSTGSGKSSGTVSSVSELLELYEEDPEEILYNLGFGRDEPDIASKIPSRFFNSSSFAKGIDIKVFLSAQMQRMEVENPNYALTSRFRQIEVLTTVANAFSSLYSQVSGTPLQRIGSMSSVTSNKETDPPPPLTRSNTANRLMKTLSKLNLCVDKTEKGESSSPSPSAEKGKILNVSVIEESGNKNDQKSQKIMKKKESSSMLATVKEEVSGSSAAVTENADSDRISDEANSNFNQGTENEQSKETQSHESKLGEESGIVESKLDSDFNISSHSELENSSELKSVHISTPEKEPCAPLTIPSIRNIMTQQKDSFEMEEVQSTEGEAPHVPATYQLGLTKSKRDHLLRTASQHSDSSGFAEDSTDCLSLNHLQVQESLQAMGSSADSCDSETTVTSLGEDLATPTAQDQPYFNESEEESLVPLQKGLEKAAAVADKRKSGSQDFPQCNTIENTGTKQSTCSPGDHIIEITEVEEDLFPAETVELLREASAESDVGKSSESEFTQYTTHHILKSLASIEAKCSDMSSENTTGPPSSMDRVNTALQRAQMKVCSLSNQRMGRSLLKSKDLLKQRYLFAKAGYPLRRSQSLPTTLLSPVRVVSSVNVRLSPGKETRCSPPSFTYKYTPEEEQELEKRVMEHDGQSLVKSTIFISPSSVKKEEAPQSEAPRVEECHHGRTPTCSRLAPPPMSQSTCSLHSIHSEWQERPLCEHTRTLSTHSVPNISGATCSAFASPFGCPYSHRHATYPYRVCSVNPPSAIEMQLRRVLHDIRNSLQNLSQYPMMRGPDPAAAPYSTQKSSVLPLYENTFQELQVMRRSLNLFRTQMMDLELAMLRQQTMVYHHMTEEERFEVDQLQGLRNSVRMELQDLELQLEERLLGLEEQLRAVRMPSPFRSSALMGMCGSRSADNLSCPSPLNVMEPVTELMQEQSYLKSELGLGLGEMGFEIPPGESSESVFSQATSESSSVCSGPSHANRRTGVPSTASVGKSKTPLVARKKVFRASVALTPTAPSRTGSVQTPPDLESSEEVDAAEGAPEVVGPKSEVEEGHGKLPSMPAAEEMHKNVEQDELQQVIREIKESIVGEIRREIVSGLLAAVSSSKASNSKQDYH
# B1: GSTM3, endogenous in human testes (protein, UniProt P21266 1-225)
# chain: MSCESSMVLGYWDIRGLAHAIRLLLEFTDTSYEEKRYTCGEAPDYDRSQWLDVKFKLDLDFPNLPYLLDGKNKITQSNAILRYIARKHNMCGETEEEKIRVDIIENQVMDFRTQLIRLCYSSDHEKLKPQYLEELPGQLKQFSMFLGKFSWFAGEKLTFVDFLTYDILDQNRIFDPKCLDEFPNLKAFMCRFEALEKIAAYLQSDQFCKMPINNKMAQWGNKPVC
# Biological target: sperm specific antigen 2 (SSFA2), endogenous in human testes (human (endogenous in human testes)) (UniProt P28290)
# Assay: affinity purification with mass spectrometry; immunoprecipitation with the SSFA2 primary antibody from total proteins of normal human testes, in-gel digestion, LC-MS/MS
binder,measurement,value
B1,binding,binds

# Results are given in words; binding and its absence hold for the method and conditions named. Binding seen in cells or lysates may run through a third protein. A yes stands for co-enrichment or nearness to the bait. Other partners may have been found. Where a sequence is shown, tags or fusion partners need not be part of it.
